{"source": "patent US4395274A", "about": "“Microbicidal agent and its use” (Bayer Aktiengesellschaft, priority 1979, dated 1983)", "system": "fungus", "test": "paper production: pulp feeding system, losses of active compound, effluent and discharged air", "conditions": "0.5% by weight of paper added to the pulp", "procedure": "Based on the weight of the paper (90 to 100 g/m^2) 0.5% of A/B=6/1 is homogeneously mixed under a pulp (density 1%, pH value 4.8) having the following composition:\nIf, however, as is customary, owing to the lack up until now of usable alternatives, 0.5% of sodium pentachlorophenolate (related to the weight of the paper) is added to the pulp, losses of active compound amounting to more than 50% occur (approx. 25% are found in the effluent and approx. 25% in the outgoing air)."}
{"smiles": "[Na+].[O-]c1c(Cl)c(Cl)c(Cl)c(Cl)c1Cl", "note": "[sodium pentachlorophenolate]", "values": [{"measurement": "active compound found in the effluent", "result": "approx. 25%"}, {"measurement": "active compound found in the outgoing air", "result": "approx. 25%"}, {"measurement": "losses of active compound", "result": "more than 50%"}]}
